# Reference: PubChem BioAssay AID652054 (National Center for Advancing Translational Sciences (NCATS), 2013)
# The chains behind the UniProt entries cited, without tags or fusion partners.
# UniProt P35462, whole entry, looked up: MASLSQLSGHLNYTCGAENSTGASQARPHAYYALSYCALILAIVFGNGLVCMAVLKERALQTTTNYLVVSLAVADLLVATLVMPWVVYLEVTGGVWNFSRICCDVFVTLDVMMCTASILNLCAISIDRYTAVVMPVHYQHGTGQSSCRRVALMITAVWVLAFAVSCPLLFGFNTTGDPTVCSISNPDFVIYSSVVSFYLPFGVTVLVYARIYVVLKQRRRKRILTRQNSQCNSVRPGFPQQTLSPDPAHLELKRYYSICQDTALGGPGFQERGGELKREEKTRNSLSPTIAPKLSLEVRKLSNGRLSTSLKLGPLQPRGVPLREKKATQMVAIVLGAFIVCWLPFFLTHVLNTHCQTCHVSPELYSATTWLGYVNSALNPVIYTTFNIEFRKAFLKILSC
# Values joined by “and” are separate entries in the source; they are usually repeats but may differ in a detail not shown here. Identical values can stand only once. About 9,100 (2.5%) of roughly 360,000 compounds were called active. The inconclusive results got no clear call from the source; some entries with a clear call stand among them for comparison. No stated cut-off is given here; in the data, active means max response below about -50%; inconclusive means no clear call, values can overlap the other calls; inactive means above that. Some structures have more than one record in an assay (separate samples or runs), and their calls can disagree.
# Target: D(3) dopamine receptor (Homo sapiens) (UniProt P35462)
# Assay: qHTS of D3 Dopamine Receptor Antagonist: qHTS
# Settings: D3R cells, DiscoveRx beta-arrestin luminescence, antagonist mode; stronger effect = lower value
# Outline: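 Cells plated overnight at 1500 cells/well, then exposed to library compounds with dopamine controls for 90 minutes at 37 degrees C. DiscoveRx reagent added for 30–60 minutes at room temperature; luminescence read, quantitative HTS format.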
# On the % scale 0 is the no-effect control and ±100 the full control effect.
row,Compound,"max response, negative = inhibition"
1,CC1CCN(S(=O)(=O)c2ccc(NC(=O)Cn3nnc(-c4ccccc4)n3)cc2)CC1,inactive: -11.9%
2,c1ccc2c(c1)CCNC2c1ccncc1 (stereo not drawn),inconclusive: -42.9%
3,CC(C)CC(=O)NC(=S)NNC(=O)c1ccc(NC(=O)C2CCCCC2)cc1,inconclusive: -34%
4,Nc1nc(=S)c2ncn(C3CCCCC3)c2[nH]1,inactive: -7.58%
5,CCN1CCN(CC(=O)N2c3ccccc3Sc3ccccc32)CC1,inconclusive: -37.1%
6,O=C(CN(C(=O)CCC(=O)Nc1nccs1)c1ccc(F)cc1)NCc1ccc(F)cc1,inactive: -12.7%
7,O=C(c1cc(C2CCCCN2S(=O)(=O)c2ccccc2)on1)N1CCOCC1 (stereo not drawn),inactive: 44.2%
8,COc1cc2cc3c(N)c(C(=O)Nc4sc(C)c(C)c4C#N)sc3nc2cc1OC,inconclusive: -31.4%
9,Cn1nc(-c2ccc(C(=O)Nc3cccc(Cl)c3)cc2)c2ccccc2c1=O,inactive: -19.7%
10,C=C(c1ccc2nc(NC(=O)OC)[nH]c2c1)c1cccs1,inactive: -19.9%
11,COC(=O)C1=C(C)N(C)C(C)=C(C(=O)OC)C1c1ccccn1,inconclusive: -36.4%
12,O=C(COc1ccccc1O)NCCN1CCOCC1,inactive: -1.25%
13,Cc1cc2c(cc1C)-n1nnnc1C(N1CCN(CC(=O)N3CCCC3)CC1)C(=O)N2 (stereo not drawn),inconclusive: -45%
14,Cc1cc(C)cc(NC(=O)CSc2nc3c(c(=O)[nH]2)CN(Cc2ccc(F)cc2)CC3)c1,inconclusive: -31.4%
16,Cn1ccc2c(-c3ccc(C(=O)O)cc3)cc3c(c21)C1CCC3O1 (stereo not drawn),inactive: 0.172%
17,O=C(Nc1nc2ccc(F)cc2s1)c1ccc([N+](=O)[O-])o1,active: -57.3%
18,COc1cccc(NC(=S)N2CCCN(Cc3ccc(F)cc3)C2)c1,inconclusive: -41.3%
19,CCC(=O)Nc1ccc(NC(=O)c2ccco2)cc1,inconclusive: -31.1%
20,CC(C)=CCC1=C(OCC(=O)O)C(=O)c2ccccc2C1=O,inconclusive: -41.5%

row,Compound,"max response, negative = inhibition"
1,COc1ccc(C2(O)CCN(CCCCOc3ccccc3)CC2)cc1,active: -90%
2,CC(CSC(=O)c1ccccc1)C(=O)N1c2ccccc2CC1C(=O)O (stereo not drawn),inconclusive: -36.2%
3,Cc1ccc(S(=O)(=O)c2ccc([N+](=O)[O-])cn2)cc1,active: -75.4%
4,O=C(O)c1cc(S(=O)(=O)Nc2ccccc2C(=O)O)ccc1O,inactive: -6.85%
5,COc1cc(/C=N/NC(=O)c2cccc(C(=O)N/N=C/c3ccc(O)c(OC)c3)n2)ccc1O,inconclusive: -38.6%
6,OC(COCc1cccs1)CN1CCN(c2cccc(C(F)(F)F)c2)CC1 (stereo not drawn),active: -54.8%
7,N#Cc1nc(-c2ccco2)oc1NCc1ccccc1Cl,inactive: 11.7%
8,O=C(NCC1CCCO1)c1nnc(Cc2ccc(F)cc2)o1 (stereo not drawn),inconclusive: -34.7%
9,CCOC(=O)C1CCCN(C(=O)c2sc3nc(-c4ccccc4)cn3c2C)C1 (stereo not drawn),inconclusive: -30.1%
10,O=C(CSc1nc2ccccc2n1S(=O)(=O)c1ccccc1)N1CCCCC1,inconclusive: -30.1%
11,COc1ccc(CC(C)N2CCN(c3ccccc3)CC2)cc1OC (stereo not drawn),active: -147%
12,CCCCCCCCCCCCCCCC[n+]1cccc(C(=O)N(CC)CC)c1,active: -74.2%
13,Cc1ccccc1Oc1nnc(-c2cccs2)c2ccccc12,inconclusive: -30%
14,COc1ccc(C(=O)NCc2ccc(C)cc2)cc1S(=O)(=O)N1CCOCC1,inconclusive: -33.3%
15,O=C1C=C(c2ccc3[nH]ccc3c2)C[C@@H](c2ccc(Cl)cc2)C1,inconclusive: -33.1%
16,COC(=O)c1nn(-c2ccc(OC)cc2)c(=O)cc1O,inactive: -0.778%
17,Cc1ccc(CN2CCN(Cc3cnn(-c4ccc(F)cc4)c3)CC2CCO)o1 (stereo not drawn),inconclusive: -49.8%
18,COc1ccc(S(=O)(=O)N2CCCCC2)cc1NC(=O)c1cccnc1SC,inactive: 12.3%
19,COc1ccc(N=C2C(=O)Nc3ccccc32)cc1,inconclusive: -33.4%
20,COCCCNC(=S)NCCCNc1nc2cc(C)cc(C)c2cc1C#N,inactive: 13.1%

row,Compound,"max response, negative = inhibition"
1,O=C(CNC(=O)c1cccc(OC(F)F)c1)OCC(=O)c1ccccc1,inconclusive: -32.8%
2,S=C(Nc1ccc(Cl)cc1)N(CCCN1CCOCC1)Cc1ccco1,inconclusive: -37%
3,Cc1ccc(-c2nc3ncccn3c2Nc2ccc3c(c2)OCCO3)cc1,inconclusive: -36%
4,CCc1ccc(CNc2ccc3c(c2)ncn3C(C)(C)C)cc1,inactive: 0%
5,CC(C)NC(=S)N1CCN(Cc2ccc3c(c2)OCO3)CC1,inactive: 3.18%
6,COC(=O)[C@H]1[C@@H](C)N(Cc2ccccc2)C(=O)N[C@H]1c1ccccc1,active: -54.8%
7,COc1ccc(-n2nc3cc(N)c(Br)cc3n2)cc1,inconclusive: -31.8%
8,CCN(CC)CCCN(Cc1cc2ccc(C)c(C)c2[nH]c1=O)C(=O)NC1CCCCC1,active: -56.7%
9,Cc1cc(C(=O)OCC(=O)c2ccc(Cl)c([N+](=O)[O-])c2)c2cccc(C)c2n1,inconclusive: -38%
10,CC(=O)Nc1sc(C)c(C)c1C(=O)OCC(=O)Nc1ccccc1,inconclusive: -43.1%
11,CCN(CCS(=O)(=O)c1ccc(Cl)cc1)Cc1nc2ccccc2c(=O)[nH]1,inactive: 44.8%
12,CCN1CCCC1CNC(=O)c1cc2c(C)nc3ccccc3c2o1 (stereo not drawn),inconclusive: -38.8%
13,CC1CCN(CCOCCOc2ccccc2-c2ccccc2)CC1,active: -82.2%
14,COc1cccc(CNC(=O)c2ccc(COc3ccccc3)cc2)c1,inconclusive: -36.4%
15,CC(=O)N1CCCC1(C(=O)O)c1ccccc1 (stereo not drawn),inactive: 2.29%
16,COc1ccc(CN(C(=O)c2oc3ccccc3c2C)C2CCS(=O)(=O)C2)cc1 (stereo not drawn),inconclusive: -36.9%
17,NS(=O)(=O)c1ccc(N/N=C/c2ccccc2C(=O)O)c([N+](=O)[O-])c1,inconclusive: -33.6%
18,COc1ccc([C@H]2CC(=O)C=C(c3ccc(C)c(F)c3)C2)cc1,inconclusive: -42%
